PubChem BioAssay AID504804 | Drosophila RNAi Screening Center – 2011
The screen tested about 19,000 reagents; this is a random part of those that have a named target and a result. Of all reagents, 47 (0.25%) got an active call. 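Signals are raw, not normalised; exact z-scores behind calls not deposited; actives needed confirmation, so some wells reaching 2 SD are inactive.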 Entries without a mark were called inactive. A plus sign joins genes that one reagent is predicted to hit.

Purpose: 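dsRNAs that improve Kc cell survival under doxorubicin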 (primary screen)
System: Drosophila Kc cells
Reagents: long dsRNA against Drosophila genes, 0.5 µg dsRNA per well
Time to read-out: 96 h (48 h knock-down, then 48 h drug)
Conditions: doxorubicin 5 µg/ml for 48 h, added 48 h after dsRNA
Read-out: 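Viability measured as cellular ATP by luminescence after 48 h knock-down then 48 h doxorubicin at 5 µg/ml; unnormalised plate counts for each replicate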
Scale: raw ATP luminescence: higher = more viable cells, protection from doxorubicin
Active means: 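z-score of 2 or more over plate mean in both duplicates, retained only when retests and separate dsRNAs confirm the protection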

gene	dsRNA	raw ATP luminescence, replicate 1	raw ATP luminescence, replicate 2
CG31921	DRSC00013	2.61e5	2.52e5
CG7069	DRSC16188	36133	44650
Lar	DRSC01707	2.65e5	2.41e5
Lar	DRSC03361	83280	61467
Sgs4	DRSC18715	49600	77190
Cp7Fa	DRSC18032	42220	49370
Cp7Fa	DRSC18033	32140	38840
Spn77Bb + Spn77Bc	DRSC10689	67487	66510
Spn77Bb + Spn77Bc	DRSC11793	65057	66470
CG32457	DRSC11596	64643	63863
CG7255	DRSC10790	30853	18587
PGAP2	DRSC00632	58440	37833
CG1172	DRSC12182	64487	59000
Lpin	DRSC07241	76587	55863
Usp14	DRSC02853	75170	63477
ng1	DRSC18802	43830	45170
wam	DRSC15171	84250	85770
nkd	DRSC11376	81230	51117
Mgat4b	DRSC10256	90620	65740
TpnC41C	DRSC04916	55657	49120
GstE7	DRSC06677	44230	44247
Unc-76	DRSC18193	53800	58160
Unc-76	DRSC18560	49780	49900
CG4151	DRSC18351	26370	36390
Cyp6a18	DRSC16632	67920	51500
CG34012	DRSC09089	1.77e5	1.24e5
Lsp1beta	DRSC00757	1.11e5	75127
HDAC1	DRSC08696	38960	39517
CR12798	DRSC21078	3.18e5	3.05e5
bves	DRSC20520	3.29e5	3.39e5
bves	DRSC20554	3.44e5	3.00e5
bves	DRSC20555	3.47e5	2.95e5
mlt	DRSC06120	56257	55000
Mcm2	DRSC16734	52163	58213
CG15882	DRSC19735	3.61e5	2.92e5
CG30002	DRSC05182	81533	83873
nxf2	DRSC10403	31347	28700
CG6839	DRSC10723	18543	19533
CG31777	DRSC00201	2.11e5	2.36e5
CG10936	DRSC05669	1.10e5	1.27e5
CG10936	DRSC05670	82513	1.12e5
Sodq	DRSC15924	56010	52250

11 consecutive reagents from above:
gene	dsRNA	raw ATP luminescence, replicate 1	raw ATP luminescence, replicate 2
CR12798	DRSC21078	3.18e5	3.05e5
bves	DRSC20520	3.29e5	3.39e5
bves	DRSC20554	3.44e5	3.00e5
bves	DRSC20555	3.47e5	2.95e5
mlt	DRSC06120	56257	55000
Mcm2	DRSC16734	52163	58213
CG15882	DRSC19735	3.61e5	2.92e5
CG30002	DRSC05182	81533	83873
nxf2	DRSC10403	31347	28700
CG6839	DRSC10723	18543	19533
CG31777	DRSC00201	2.11e5	2.36e5

Continued:
gene	dsRNA	raw ATP luminescence, replicate 1	raw ATP luminescence, replicate 2
wun2	DRSC07566	48953	84887
Sik2	DRSC18522	54130	55840
Phlpp	DRSC02065	65747	72750
put	DRSC17039	86590	29203
CG32081	DRSC09861	87380	78580
CG12325	DRSC06130	60283	50920
CG14401	DRSC02385	63663	56867
Ugt303B1	DRSC15141	48790	49780
CG3500	DRSC04379	47610	53647
Hsp110	DRSC11186	26193	27893
CG14187	DRSC10186	67863	57377
CG6800	DRSC16119	44030	59540
okr	DRSC00834	1.11e5	68730
CG7272	DRSC10795	60633	43060
CG8372	DRSC03086	1.05e5	50950
CG6041	DRSC18396	38370	52220
Doc3	DRSC10480	63467	69597
CG14566	DRSC11727	71390	62763
Cog3	DRSC00585	93550	64023
CG6763	DRSC16110	77740	69980
CG1638	DRSC15132	45740	49510
Pak	DRSC12602	65773	26933
CG3251	DRSC00586	25290	21890
CG43322	DRSC02280	30567	34523
Obp57e	DRSC05891	1.25e5	1.04e5
CG9876	DRSC04586	56280	53817
CG10801	DRSC17761	64310	50800
CG13545	DRSC04187	38473	62653
CG3198	DRSC18292	44200	50710
CG4957	DRSC02793	38643	83807
CG6983	DRSC10757	42357	31880
Hrd3	DRSC14156	43897	49040
obst-I	DRSC08339	63850	69917
cDIP	DRSC14267	47460	31313
CG9485	DRSC04557	72113	91077
prage	DRSC17957	31590	31870
prage	DRSC18490	60030	41770
prage	DRSC18497	52770	43870
SNCF	DRSC10115	88093	72033
CG18747	DRSC15384	59510	60840
CG33230	DRSC08602	63213	67787
fd96Cb	DRSC16947	63640	67550
r2d2	DRSC03014	44250	64757
CG12024	DRSC08229	62000	62567
Cox10	DRSC02804	80037	52227
PolA2	DRSC16641	59200	59360
CG34193	DRSC05665	1.69e5	1.14e5
Alg7	DRSC02833	91103	52263
Alg7	DRSC02834	60857	62700
fand	DRSC06967	79893	61633
PIG-A	DRSC06982	53020	68537
GatA	DRSC16956	37967	52413
Ir60b	DRSC04217	54383	51210
Spx	DRSC18720	28770	28720
unc80	DRSC15329	36240	43470
CG15537	DRSC15073	34550	42850
CG9231	DRSC11054	20950	20073
CR42548	DRSC09514	77873	91943
CG11581	DRSC19407	3.17e5	2.90e5
rib	DRSC07021	73253	67707
Rph	DRSC17790	2.70e5	2.69e5
CG17732	DRSC10283	75183	59837
ftz-f1	DRSC11347	54100	34107
CG31886	DRSC03248	61913	58310
Cubn2	DRSC10561	69117	70870
